Chains of the proteins cited; added tags and fusions are not shown. Lines headed by an entry give the natural chain unless they say otherwise; changes in a name come on top.
UniProt P01106: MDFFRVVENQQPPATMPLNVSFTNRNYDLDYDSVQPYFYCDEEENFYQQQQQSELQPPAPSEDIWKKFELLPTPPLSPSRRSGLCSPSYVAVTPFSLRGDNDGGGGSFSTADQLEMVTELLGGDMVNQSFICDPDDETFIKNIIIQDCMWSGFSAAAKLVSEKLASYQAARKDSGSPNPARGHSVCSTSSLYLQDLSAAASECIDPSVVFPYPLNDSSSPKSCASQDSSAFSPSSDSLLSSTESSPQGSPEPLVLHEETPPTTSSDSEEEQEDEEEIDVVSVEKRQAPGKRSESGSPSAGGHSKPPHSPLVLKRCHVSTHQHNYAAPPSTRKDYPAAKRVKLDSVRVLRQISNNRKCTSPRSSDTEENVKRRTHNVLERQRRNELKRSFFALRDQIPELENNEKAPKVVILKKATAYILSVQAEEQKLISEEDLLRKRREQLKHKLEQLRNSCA
UniProt Q6ZN18: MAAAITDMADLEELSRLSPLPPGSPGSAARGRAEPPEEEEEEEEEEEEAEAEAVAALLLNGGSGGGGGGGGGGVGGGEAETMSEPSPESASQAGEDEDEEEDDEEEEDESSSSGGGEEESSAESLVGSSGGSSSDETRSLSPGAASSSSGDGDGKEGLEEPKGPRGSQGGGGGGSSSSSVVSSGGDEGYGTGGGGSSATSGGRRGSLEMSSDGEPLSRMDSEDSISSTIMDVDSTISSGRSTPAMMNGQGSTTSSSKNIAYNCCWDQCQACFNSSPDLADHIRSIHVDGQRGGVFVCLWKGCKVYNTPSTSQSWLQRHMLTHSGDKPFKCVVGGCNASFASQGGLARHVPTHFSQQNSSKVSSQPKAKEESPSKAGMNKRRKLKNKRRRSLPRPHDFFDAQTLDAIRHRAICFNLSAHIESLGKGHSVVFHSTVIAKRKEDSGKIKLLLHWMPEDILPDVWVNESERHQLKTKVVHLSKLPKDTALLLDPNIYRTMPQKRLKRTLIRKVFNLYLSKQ

According to paper PMC4912626:

Biological target: YFP-MYCΔMBII (UniProt P01106)
Assay: FRET or BRET; acceptor photobleaching FRET (apFRET) in fixed NIH3T3 cells co-expressing CFP- and YFP-tagged proteins, MAX co-expressed (MYC:MAX 4:1)

binding: binds
Substance: AEBP2-CFP (from UniProt Q6ZN18 1-517)

No constants are given. Whether binding was seen depends on the method and setting. Binding seen in cells or lysates may run through a third protein. Binding can be weak; no strength is given.
